Literature values, collected in patent US20050288213A1, “Combination therapy for the treatment of obesity” (priority 2002, published 2005).
Some entries share one result that the patent states for a list of compounds. Some ranges recur; such a range may be that of the whole group of compounds.

Key:
[1] = cited from earlier work; for weight loss of body weight for drug compared to placebo: monotherapy, literature studies
[2] = chronic treatment periods of greater than 10 days, preclinical; cited from earlier work

Row | SMILES | weight loss of body weight for drug compared to placebo [1] | body weight loss compared to control [2] | body weight reduction ([1]; over a 6 month or a 1 year period)
1 | CCN[C@@H](C)Cc1cccc(C(F)(F)F)c1 [dexfenfluramine] | 5%-10% | – | –
2 | CCNC(C)Cc1cccc(C(F)(F)F)c1 (stereo not drawn) [fenfluramine] | – | no more than 10% | –
3 | CC(C)(N)Cc1ccccc1 [phentermine] | 5%-10% | – | –
4 | CC(C)CC(N(C)C)C1(c2ccc(Cl)cc2)CCC1 (stereo not drawn) [sibutramine] | 5%-10% | no more than 10% | less than 10%
